Results deposited as PubChem BioAssay AID1259281 (Sanger Institute, 2017)
Here is a random part of 794 reagents tested. 22 of them (2.8%) were called active. 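Calls rest on knock-down alone only; drug synergy scores play no part in them.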 Viability is capped at 1. Not all columns of the deposit are shown. No sequences are given here. Not stated in the record: the amount of reagent, the time to read-out.

Aim: 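Screen kinases and frequently colorectal-mutated genes for lethal knock-downs and drug partners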 (primary screen)
Cells: human COLO678 colorectal cancer cell line
Reagents: siRNA pool against human genes
Conditions: anchor drugs at fixed doses: BYL719 1 µM, cetuximab 5 µg/ml or trametinib 10 nM; DMSO vehicle for the siRNA-alone arm
Read-out: 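Surviving cells scaled to non-targeting siRNA control as replicate means; robust z-score for knock-down alone; synergy scores weigh knock-down with drug against the predicted combined effect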
Scale: robust z-score, siRNA alone: higher = more viable cells; strongly negative means essential; viability, siRNA alone: higher = more surviving cells; synergy score with BYL719: higher = stronger synergistic killing with drug
Call rule: 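Called essential (knock-down alone) if knock-down by itself drops cell number to a robust z-score under -3; all others no change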
Calls: active = essential (knock-down alone); inactive = no change

| Target gene | robust z-score, siRNA alone | viability, siRNA alone (fraction of control) | synergy score with BYL719 | outcome |
| --- | --- | --- | --- | --- |
| CDKL2 (GeneID 8999) | 0.473 | 1 | 0.169 | inactive |
| DTYMK (GeneID 1841) | 0.473 | 1 | -0.0447 | inactive |
| SRPK3 (GeneID 26576) | 0.473 | 1 | -0.0919 | inactive |
| ATM (GeneID 472) | 0.473 | 1 | -0.0919 | inactive |
| CAMK1G (GeneID 57172) | 0.473 | 1 | -0.04 | inactive |
| PIP5K1C (GeneID 23396) | -0.366 | 0.973 | -0.116 | inactive |
| CKM (GeneID 1158) | 0.473 | 1 | 0.0442 | inactive |
| CDK10 (GeneID 8558) | -1.34 | 0.943 | -0.125 | inactive |
| ACVR1 (GeneID 90) | 0.473 | 1 | 0.0119 | inactive |
| PIK3CD (GeneID 5293) | -3.22 | 0.883 | -0.106 | active |
| CRKL (GeneID 1399) | 0.473 | 1 | -0.0919 | inactive |
| TGFBR2 (GeneID 7048) | 0.473 | 1 | -0.00959 | inactive |
| MAP2K3 (GeneID 5606) | 0.473 | 1 | 0.163 | inactive |
| CALM3 (GeneID 808) | 0.16 | 0.99 | -0.101 | inactive |
| PI4KA (GeneID 5297) | -1.11 | 0.95 | -0.00669 | inactive |
| SGK1 (GeneID 6446) | 0.473 | 1 | -0.0919 | inactive |
| TRIM27 (GeneID 5987) | 0.473 | 1 | -0.0919 | inactive |
| GK (GeneID 2710) | -0.215 | 0.978 | -0.111 | inactive |
| MSR1 (GeneID 4481) | -1.5 | 0.937 | 0.0346 | inactive |
| MINK1 (GeneID 50488) | 0.473 | 1 | -0.0919 | inactive |
| PIK3CA (GeneID 5290) | 0.473 | 1 | -0.0304 | inactive |
| PFKFB4 (GeneID 5210) | 0.209 | 0.992 | -0.0995 | inactive |
| AKAP9 (GeneID 10142) | -1.55 | 0.936 | 0.0866 | inactive |
| PRPS1L1 (GeneID 221823) | -1.82 | 0.927 | -0.113 | inactive |
| MPP1 (GeneID 4354) | 0.473 | 1 | -0.0919 | inactive |
| MAGI2 (GeneID 9863) | 0.473 | 1 | -0.0919 | inactive |
| TCF12 (GeneID 6938) | 0.473 | 1 | 0.0837 | inactive |
| OXSR1 (GeneID 9943) | 0.473 | 1 | 0.0683 | inactive |
| PANK4 (GeneID 55229) | -1.45 | 0.939 | -0.0191 | inactive |
| DSTYK (GeneID 25778) | 0.473 | 1 | -0.00332 | inactive |
| FLT3 (GeneID 2322) | 0.473 | 1 | 0.0271 | inactive |
| PEAK1 (GeneID 79834) | 0.473 | 1 | 0.0263 | inactive |
| NUAK1 (GeneID 9891) | 0.473 | 1 | 0.125 | inactive |
| STK26 (GeneID 51765) | -0.223 | 0.978 | -0.0606 | inactive |

Continued, starting with the last 3 of the part before.
| Target gene | robust z-score, siRNA alone | viability, siRNA alone (fraction of control) | synergy score with BYL719 | outcome |
| --- | --- | --- | --- | --- |
| PEAK1 (GeneID 79834) | 0.473 | 1 | 0.0263 | inactive |
| NUAK1 (GeneID 9891) | 0.473 | 1 | 0.125 | inactive |
| STK26 (GeneID 51765) | -0.223 | 0.978 | -0.0606 | inactive |
| RPS6KA1 (GeneID 6195) | 0.473 | 1 | -0.048 | inactive |
| PIM3 (GeneID 415116) | 0.473 | 1 | -0.0625 | inactive |
| MAPK14 (GeneID 1432) | 0.473 | 1 | -0.0192 | inactive |
| PLK4 (GeneID 10733) | 0.473 | 1 | -0.0919 | inactive |
| EPHA2 (GeneID 1969) | 0.473 | 1 | -0.0919 | inactive |
| CLK4 (GeneID 57396) | -1.21 | 0.946 | -0.141 | inactive |
| ITPKC (GeneID 80271) | 0.473 | 1 | -0.00104 | inactive |
| PTK2B (GeneID 2185) | 0.473 | 1 | -0.0919 | inactive |
| MERTK (GeneID 10461) | 0.473 | 1 | 0.0159 | inactive |
| NEK6 (GeneID 10783) | 0.473 | 1 | -0.0919 | inactive |
| PLK2 (GeneID 10769) | -1.29 | 0.944 | -0.143 | inactive |
| SMG1 (GeneID 23049) | 0.473 | 1 | -0.0821 | inactive |
| MAP2K7 (GeneID 5609) | 0.473 | 1 | -0.0492 | inactive |
| GSK3A (GeneID 2931) | 0.473 | 1 | -0.0279 | inactive |
| TTBK2 (GeneID 146057) | -3.36 | 0.878 | -0.145 | active |
| CDK20 (GeneID 23552) | 0.473 | 1 | 0.113 | inactive |
| MAPK13 (GeneID 5603) | 0.473 | 1 | -0.0919 | inactive |
| NEK1 (GeneID 4750) | 0.473 | 1 | 0.135 | inactive |
| STK38 (GeneID 11329) | -0.781 | 0.96 | 0.0171 | inactive |
| ALK (GeneID 238) | 0.473 | 1 | 0.0994 | inactive |
| CDK5R1 (GeneID 8851) | -0.832 | 0.959 | 0.0325 | inactive |
| PIM2 (GeneID 11040) | 0.473 | 1 | -0.0919 | inactive |
| DYRK1A (GeneID 1859) | 0.473 | 1 | 0.0289 | inactive |
| CDK5 (GeneID 1020) | 0.473 | 1 | -0.0919 | inactive |
| SLK (GeneID 9748) | 0.473 | 1 | -0.0919 | inactive |
| RIPK1 (GeneID 8737) | 0.473 | 1 | -0.0455 | inactive |
| CDK2 (GeneID 1017) | 0.473 | 1 | -0.0521 | inactive |
| CERK (GeneID 64781) | 0.473 | 1 | 0.117 | inactive |
| VRK2 (GeneID 7444) | -0.258 | 0.977 | -0.113 | inactive |
